These results are taken from publication PMC10659188.

Results are given in words; binding and its absence hold for the method and conditions named. In cells and extracts the contact can be indirect. Here binding means that the protein was enriched with, or labelled near, the bait; the list need not be complete. Sequences can lack the tags named with a protein.

To fix the notation:
B1: Tts1 (protein, UniProt Q9Y7Z5 1-279)
chain: MEPKQRVVKPLKERVLPVVKNTQFVWFSGQVIVLISSVLYALQAIPFRSAPPFLFKSAAFGAIVAYAIVLYKTYSPNLTSRASWNKHFFARLMLDDNVQYFILALSMLIDRPILFSLAPYAIYATFHISTYLRSVLLPAIYPNISDAKTASYASRVSNLLNQYTRSQFQPAMQLVASLETFLLFRLFFGVFLRKNSISRLVGYIFFLRMRYTNSHFTRASIKAVSLRMDRLVADNRVPPVIKNAWHTFKTYVSKFGASPVGTAQSRPTASSSTTAPSST
B2: Rtn1 (protein, UniProt P53694 1-308)
chain: MSEQHSLNPFESGSVTASDVAAAKSGAEDLVNTLTAHTVHPSTELPSATSFPSALPNSENPVIQNISSSSSEPHHTSQSTPGETSSPVCPVSGAHGGADKKCPALEAGCPFTNTTKQNVDPEISNALWSVLTWKNTSCSFSTLMSILALVYVPSWINLPRLFFRTFRYVFLITSIIEFGGLFASNGKRGVLSHFRSSYITCDSKALDRIVNSIVDIFNVMLIQFQRILFAESPILTFTASVAAFIEFFLSGFLSYKSLFVWNVLFAFILPRLYVCNERSIKHLVASLERSGDKLKKQATETINTTVNK
B3: Sey1 (protein, UniProt Q9UTE0 1-762)
chain: MSTASNRVSTQIVDEHKQFNNELPKFMQSVGLLDAGFNYHVVAVLGSQSTGKSTLLNNLFGTSFSVMDASKRQQTTKGIWLSKANNSPILVMDVEGTDGRERGEDQDFERKSALFSISTSEVIIVNMWENQVGLYQGSNMALLKTVLEVNLQLFHNKKERCLLQFVIRDFLGNTSMENLADTIMTDLNNIWASLSKPEGFENSVINDFFDVGFTGLPHKILCSDAFSEAVDSLRERFVDNNNSDYIFNVSYHKKIPADGFSLYTREIWDTIENNKDLDLPTQQQLLAQYRCDEIITEVMEPFSTACTILQKEFLPGNLCKDLPTKLLNMFETVIEAYDRQASRYNVHIYQKKKQELIASVDSHLYVFFQAQLNALHKELIKSFFDASNEFPSDTPFKESSSIKINELVNKMREEGESLSLPHVHWDVDPFILKLSEELTQNSETLCKEKLKEKLEELFTGFEFEVSEAVEVAFQKLSHNVWDTLLNEFLAAQNTTIEKIKNIVPFYVDIDDTKTTEEYIINFKKNSWLFFRKKIDSEMSEVLLQQRLRVYFEELFRYDSDGMPKLWKKSGTIDRDYRESLTKTLDLINVLASIKVSDGNYPDLNVDIKTLEPEYTSPASFFTILNRRRVSDISVNFKRSADLIFMDCKRSVINTTTRIPPYFWVLLIVLGWNEFMAILRNPFVFMILMFGGTVVYGLYISGLIWPAKMVLERATNNLVDLATDRFSNTYQEQVQQRAMQRTEKSGSPVASADDAEAEKTALS
B4: Yop1 (protein, UniProt Q9UU91 1-182)
chain: MSFQVRVKQNMQDLDNRLAAFPQLNSLEKNFGVSKLYVFLTAAGIYALFLFLNWGGFLLTNLLAFAMPAFFSINAIETTNKADDTQWLTYYLVTSFLNVIEYWSQLILYYVPVYWLLKAIFLIWLALPKFNGATIIYRHLIRPYITPHVIRICKSVSRQNAAPAPTASSFAHTTATDIPPSI
B5: Lnp1 (protein, UniProt O94414 1-334)
chain: MGWFFQKKKEFDFGGELDRLEMKLEEAQYNIDNIQSQKKKILFRYTVCSLAIYTIGMAVWASRSSILFQHPLFSKLFRISLYILGVFSLYMFRWAIAWFCEKRLSRARMNLHKLNAEKRKILDALKSRKEYFETQALLEKYGEQPTLAQKKLSNAAAAKSVPGSSSSSSDPMHPQHWYDRVLEGLVGANENSENNREALICSHCFHHNGLASYGEKASDVRYVCLFCKAWNGPPIDKSLPSSEMDSNLQTNPSSISKGKKNNSNNTTQKGPNIISSPQVINASSPVRKAGKKKSKKALPTSPLSSSSPDASYNSVSDSFHTVAASVPESLTPTK
B6: Scs2 (protein, UniProt O60119 1-383)
chain: MSVECSGELFFYPPFTTMSKELISVHNPNPEPVIFKVKTTAPKHYCVRPNSGKIEPKSTVNVQVLLQAMKEEPAPDFKCRDKFLIQSMAIGDADTSNVENYHEFWTEMEKQGRSIFDRKIRCVYSTKQPPQSADKQVENTSTSNPPVSVEGSENLASSVGGPTAVGVSLDEAQNDFNGAKDHLSNGVNTVVPDSTFRSTFESAQIPDASVVQTVVTDADNGAASVKDTIVTAESASSKGADVARSKVQDIIDNEIPKPSESPRRSVSSTPPVHPPPPVPQNLSAVNEEFDTKKNDFDSKLPESTPAVEKVSENLGSETRESLQGAKPAAGAHSSDNALEQIKPSYSADPSSSTGASLTESPGIPPNIVIILCLIFFLIGYLFF
B7: Scs22 (protein, UniProt Q10484 1-319)
chain: MALECDSTIVFPRPLTRLVKCDLELRNTAPYPIGFKVKTTAPKQYCVRPNGGRIEANSAVSVEVILQPLDHEPAPGTKCRDKFLVQSTELKPELQGMDIADIWTQVSKANISERKIRCVYSEGPSTANAHANAHHQPAQTTTTSIPTSATDNYTTVNGNVNQSYSKGIDGTALPSTHANPVAAPSTATTQHTQLPKTSAVSHQKPHEAPSTAVKAPTATVAENEPYPKPQSVPTTTSPNNENNALRSTANVINNTRQSTATSPSMFAGNSGNQIGLARVSSSFGRPTSGAKVVPQIHNTVTVQTAFLLAIICFLIGLLF

This test addresses T1, Yep1 (full-length, tagged with GFP or mCherry, expressed in S. pombe) (S. pombe) (UniProt O14355).
T1 sequence: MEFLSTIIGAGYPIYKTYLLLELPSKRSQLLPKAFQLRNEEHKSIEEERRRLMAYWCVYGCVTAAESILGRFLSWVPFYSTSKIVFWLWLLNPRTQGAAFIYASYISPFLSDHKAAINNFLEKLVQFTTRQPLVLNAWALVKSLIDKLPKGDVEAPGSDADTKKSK
Put plainly: affinity purification with mass spectrometry; Yep1-GFP as bait, GFP-Trap immunoprecipitation from S. pombe lysate, mass spectrometry; ER-localizing proteins against a control IP.
For B1, the binding result was “binds”. Turning to B2, the binding result is “binds”. Turning to B3, the binding result is “binds”. Regarding B4, the binding entry was “binds”.

With B5, the binding result is given as “binds”. Turning to B6, the binding entry is given as “binds”. With B7, the binding entry was “binds”.
